Experimental data as given in publication PMC4117600.
These are yes or no findings as the source states them, for the method shown. Some entries that bind do so weakly or less than the wild type. For some assays here: Sequences can lack the tags named with a protein.

Assays:
[1] = compound: T1, CC chemokine receptor 4 (CCR4), human (human) (UniProt P51679); assay: flow cytometry on cells; binding of anti-CCR4 scFv fragments to DT40/CCR4 cells in the presence of increasing concentrations of unlabeled CCL22 or CCL17; bound scFv detected with anti-cMyc antibody and PE conjugate; only the binder purified
T1 sequence: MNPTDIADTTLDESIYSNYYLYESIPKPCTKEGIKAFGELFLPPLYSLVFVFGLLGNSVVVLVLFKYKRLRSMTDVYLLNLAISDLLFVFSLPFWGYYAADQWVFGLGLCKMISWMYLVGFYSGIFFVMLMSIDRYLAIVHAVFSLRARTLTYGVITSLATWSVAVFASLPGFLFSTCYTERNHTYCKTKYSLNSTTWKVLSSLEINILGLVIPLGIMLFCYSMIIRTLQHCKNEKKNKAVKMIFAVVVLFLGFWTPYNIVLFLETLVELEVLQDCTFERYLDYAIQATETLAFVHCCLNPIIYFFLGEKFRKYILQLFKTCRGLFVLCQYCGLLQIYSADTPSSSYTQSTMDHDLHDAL

[2] = compound: T1, ; assay: flow cytometry on cells; competitive inhibition on DT40/CCR4 cells: biotinylated CCL17 (3.12×10^5 nM as printed; detected with PE-streptavidin) or Alexa-647-labeled CCL22-SNAP (50 nM) competed with increasing concentrations of unlabeled IgG or ligand; only the binder purified

Binder	binding [1]	binding [2]
macrophage-derived chemokine (MDC/CCL22), unlabeled (ligand, UniProt O00626 25-93) GPYGANMEDSVCCRDYVRYRLPLRVVKHFYWTSDSCPRPGVVLLTFRDKEICADPRVPWVKMILNKLSQ	binds	
Alexa-647-labeled CCL22-SNAP fusion protein (ligand, UniProt O00626 25-93, Alexa-647 label) GPYGANMEDSVCCRDYVRYRLPLRVVKHFYWTSDSCPRPGVVLLTFRDKEICADPRVPWVKMILNKLSQ		binds
